Data reported in PMC6677171, “Subunit interactions and arrangements in the fission yeast Mis16–Mis18–Mis19 complex” (Life Science Alliance, 2019).
These are yes or no findings as the source states them, for the method shown. Some binding calls cover weakened binding; strength is not graded here.

By UniProt entry, the sequences of proteins in these tests, tags left out. Where a name states a change or a piece, a line headed by the entry shows the natural chain unless it says otherwise.
UniProt O42995: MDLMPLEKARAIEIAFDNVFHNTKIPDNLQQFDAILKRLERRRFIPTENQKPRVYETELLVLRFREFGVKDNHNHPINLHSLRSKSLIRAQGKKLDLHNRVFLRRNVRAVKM

Experiments:
[1] = target: T1, preformed Mis16–Mis19 dimer (full-length Mis19) (S. pombe) (UniProt O94244+O42995); experiment: SEC; competition: preformed Mis16–Mis18–Mis19 complex challenged with peptides from the Mis19 N terminus; dissociation seen as separate Mis16–19 and Mis18 peaks; both purified
[2] = target: Mis16–Mis19^27–112 complex (S. pombe) (UniProt O94244+O42995); experiment: pull-down; purified proteins or complexes; streptavidin–agarose beads; 25 mM Tris–HCl pH 7.5, 500 mM NaCl, 5% glycerol, 1 mM TCEP; 4°C, at least 1 h; tagged bait 10–20 μM, untagged targets in twofold to fivefold molar excess; eluted with desthiobiotin; SDS–PAGE; both purified
[3] = target: T1, preformed Mis16–Mis19 dimer (full-length Mis19) (S. pombe); experiment: pull-down; competition: preformed Mis16–Mis18–Mis19 complex (Strep-tagged) pulled down without or with peptides from the Mis19 N terminus; both purified

Measured: binding

B1: Mis18 (S. pombe) (protein, UniProt Q9P802 1-194)
chain: MSQTETSHSGYIDFKKESQPSVFQCKKCFQIVGDSNAWVISHREYLSFTLSDAVENSVRVEDTFKRSDDGLCVYSELSCTRCNEVIGKVYNSTPIYLDDIRDMYTFSMDKLQAYQLGNKTVNPEGLTRYQVDLEMREDIIKLKSFCLSLYEKFELHDETLRSVKETISSLKKPKIEGKEGKKEKARTYSKRTRK
binds: [1] | [2] | [3]
